For part of these data: Part of at least one peptide drawing is inferred or uncertain, most often the ends. For part of these data: For at least one compound, name, drawing or mass did not settle the structure. Ends that are not written are not given here.
How the values were obtained:
[1] = tested on: γ-thrombin-induced platelet aggregation; experiment: Ex vivo γ-thrombin-induced platelet aggregation in PRP after in vivo bolus infusion; design: species or system New Zealand white rabbits
[2] = tested on: ADP-induced platelet aggregation; experiment: Ex vivo ADP-induced platelet aggregation in PRP after in vivo bolus infusion; design: species or system New Zealand white rabbits; settings: 20 μM ADP, rabbit, single bolus infusion
[3] = target: T1, thrombin receptor (Homo sapiens, UniProt P25116); experiment: Flow cytometry: loss of the SPAN12 epitope on α-thrombin activated platelets; assay type: cell-based; settings: 1 mM peptide, 1 nM α-thrombin
T1 construct: SPAN12 detected an antigen on the thrombin receptor on unstimulated platelets; endogenous in cells; host or cells: washed platelets from fresh blood
T1 sequence (P25116 22-425): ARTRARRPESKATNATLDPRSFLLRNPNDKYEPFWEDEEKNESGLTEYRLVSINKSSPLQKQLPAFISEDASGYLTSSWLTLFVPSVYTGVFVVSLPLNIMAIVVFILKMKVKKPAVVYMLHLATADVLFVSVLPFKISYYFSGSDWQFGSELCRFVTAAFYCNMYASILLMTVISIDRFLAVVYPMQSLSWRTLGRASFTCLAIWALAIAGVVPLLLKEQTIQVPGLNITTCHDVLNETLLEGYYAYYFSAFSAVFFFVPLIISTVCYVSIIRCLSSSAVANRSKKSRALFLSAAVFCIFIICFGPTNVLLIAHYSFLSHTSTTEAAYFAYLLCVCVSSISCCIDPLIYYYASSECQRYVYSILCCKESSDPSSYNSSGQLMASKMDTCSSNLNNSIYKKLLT

Substance | time for which γ-thrombin-induced platelet aggregation was inhibited 100% ([1]; 10 nM γ-thrombin, rabbit, single bolus infusion) | time for which γ-thrombin-induced platelet aggregation was inhibited ≧50% ([1]; 20 nM γ-thrombin, rabbit, single bolus infusion) [h] | time for which γ-thrombin-induced platelet aggregation was inhibited ≧50% ([1]; 40 nM γ-thrombin, rabbit, single bolus infusion) | inhibition of γ-thrombin-induced platelet aggregation in rabbit PRP ex vivo after in vivo infusion (FIG. 1) ([1]; in vivo infusion) | time for which ADP-induced platelet aggregation was inhibited ≧50% [2] | loss of the SPAN12 epitope of the thrombin receptor on α-thrombin activated platelets [3]
RPPGF [RPPGF, Arg-Pro-Pro-Gly-Phe] | over 4 hours | 2.75 | one | prolonged inhibition | roughly 45 minutes | –
RPPGFSPFR [native BK] | – | – | – | – | – | prevented the loss of the epitope
